Experimental data: patent US20250059273A1 (UNM RAINFOREST INNOVATIONS, published 2025)
No constants are given. Whether binding was seen depends on the method and setting. Some entries that bind do so weakly or less than the wild type. Ends that are not written are not given here.

Chains of the proteins cited; added tags and fusions are not shown. Lines headed by an entry give the natural chain unless they say otherwise; changes in a name come on top.
UniProt Q99571: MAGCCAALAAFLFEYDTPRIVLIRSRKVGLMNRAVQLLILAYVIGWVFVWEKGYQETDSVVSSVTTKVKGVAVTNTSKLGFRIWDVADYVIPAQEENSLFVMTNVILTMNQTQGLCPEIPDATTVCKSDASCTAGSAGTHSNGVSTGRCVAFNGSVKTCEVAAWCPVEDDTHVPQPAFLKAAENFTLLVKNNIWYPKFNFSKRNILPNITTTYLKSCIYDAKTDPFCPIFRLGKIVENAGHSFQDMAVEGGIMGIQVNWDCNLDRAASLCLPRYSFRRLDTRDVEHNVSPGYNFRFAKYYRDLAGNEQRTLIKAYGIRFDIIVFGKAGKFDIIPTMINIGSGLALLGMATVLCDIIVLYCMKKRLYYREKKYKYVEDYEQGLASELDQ

T1: human P2X4 peptide (human, UniProt Q99571 301-313)
T1 construct: range 301-313; The range 301-313 is stated for rat P2X4R, with the human peptide as its 'human form'; also called human Target P2X4R peptide; thirteen amino acid extracellular peptide fragment of human P2X4 receptor
T1 peptide (looked up): RDLAGNEQRTLIK

T2: rat P2X4R extracellular peptide (a.a. 301-313, C-…) (rat)
T2 sequence (peptide, N-terminal biotin tag; printed with a leading 'C-'): RDLAGKEQRTLTK


Assays:
human P2X4 peptide [1] = molecular target: T1, human P2X4 peptide; test: ELISA
human P2X4 peptide [2] = molecular target: T1, human P2X4 peptide; test: indirect ELISA of purified scFv on human P2X4 peptide, concentration not shown
human P2X4 peptide [3] = molecular target: T1, human P2X4 peptide; test: indirect ELISA, wells coated with human P2X4 peptide (200 ng/well), HRP-conjugated mouse anti-His tag antibody, triplicate wells
[4] = molecular target: T2, rat P2X4R extracellular peptide (a.a. 301-313, C-…) (rat); test: ELISA
[5] = molecular target: T2, rat P2X4R extracellular peptide (a.a. 301-313, C-…) (rat); test: indirect ELISA
[6] = molecular target: T2, rat P2X4R extracellular peptide (a.a. 301-313, C-…) (rat); test: ELISA (FIG. 2D)
[7] = molecular target: T2, rat P2X4R extracellular peptide (a.a. 301-313, C-…) (rat); test: ribosome display selection / ELISA
[8] = molecular target: T2, rat P2X4R extracellular peptide (a.a. 301-313, C-…) (rat); test: indirect ELISA titration on P2X4R peptide
[9] = molecular target: T2, rat P2X4R extracellular peptide (a.a. 301-313, C-…) (rat); test: indirect ELISA, single condition, scFv concentration not shown
[10] = molecular target: T2, rat P2X4R extracellular peptide (a.a. 301-313, C-…) (rat); test: indirect ELISA of purified scFv on rat P2X4 peptide, concentration not shown

| Binder | binding (human P2X4 peptide [1]) | binding (human P2X4 peptide [2]) | binding (human P2X4 peptide [3]) | binding [4] | binding [5] | binding [6] | binding [7] | binding [8] | binding [9] | binding [10] |
| --- | --- | --- | --- | --- | --- | --- | --- | --- | --- | --- |
| humanized hP2X4R scFv HC3-LC3 (scFv, HC-(G4S)3-LC with C-terminal His tag; also called hP2X4R HC3-LC3 scFv; HC3 LC3 hP2X4R scFv) scFv: MAEVQLVESGGGLVQPGGSLRLSCATSGFTFTDYYMHWVRQAPGKGLEWVGFIRNKANGYTTEYSASVKGRFTISRDNSKNTLYLQMNSLRAEDTAVYYCARWEGDLLYAMDYWGQGTLVTVSSGGGGSGGGGSGGGGSDIQMTQSPSSLSASVGDRVTITCRASQGISNYLNWYQQKPGKAPKLLIYYTSSLHSGVPSRFSGSGSGTDFTLTISSLQPEDFAYYYCQQYSKLPWTFGGGTKVEIKRAAALEHHHHHH | binds | binds | binds | – | – | – | – | – | – | – |
| humanized P2X4R scFv HC2-LC1 (scFv, HC-(G4S)3-LC with C-terminal His tag, expressed in E. coli) scFv: MAQVQLQESGPGLVKPSQTLSLTCTTSGFTFTDYYMSWVRQAPGKGLEWIGFIRNKANGYTTEYSASVKGRFTISRDNSKNQFSLRLSSVTAADTAVYYCARWEGDLLYAMDYWGQGTTVTVSSGGGGSGGGGSGGGGSDIQMTQTTSSLSASLGDRVTISCSASQGISNYLNWYQQKPDGTVKLLIYYTSSLHSGVPSRFSGSGSGTDYSLTISNLEQEDIATYYCQQYSKLPWTFGGGTKLEIKRAAALEHHHHHH | binds | binds | binds | – | – | – | – | – | – | – |
| humanized P2X4R scFv HC1-LC1 (scFv, HC-(G4S)3-LC with C-terminal His tag, expressed in E. coli) scFv: MAEVKLVESGGGLVQPGGSLRLSCATSGFTFTDYYMSWVRQPPGKALEWLGFIRNKANGYTTEYSASVKGRFTISRDNSQSILYLQMNTLRAEDSATYYCARWEGDLLYAMDYWGQGTSVTVSSGGGGSGGGGSGGGGSDIQMTQTTSSLSASLGDRVTISCSASQGISNYLNWYQQKPDGTVKLLIYYTSSLHSGVPSRFSGSGSGTDYSLTISNLEQEDIATYYCQQYSKLPWTFGGGTKLEIKRAAALEHHHHHH | binds | binds | binds | – | – | – | – | – | – | – |

The next lines start with the values.

| binding (human P2X4 peptide [1]) | binding (human P2X4 peptide [2]) | binding (human P2X4 peptide [3]) | binding [4] | binding [5] | binding [6] | binding [7] | binding [8] | binding [9] | binding [10] | Binder |
| --- | --- | --- | --- | --- | --- | --- | --- | --- | --- | --- |
| binds | binds | binds | binds | binds | binds | binds | binds | binds | binds | P2X4-scFv95 (parental murine anti-P2X4R scFv) (scFv, also called mscFv95; clone 95) scFv: MAEVKLVESGGGLVQPGGSLRLSCATSGFTFTDYYMSWVRQPPGKALEWLGFIRNKANGYTTEYSASVKGRFTISRDNSQSILYLQMNTLRAEDSATYYCARWEGDLLYAMDYWGQGTSVTVSSGGGGSGGGGSGGGGGSGGGGSDIQMTQTTSSLSASLGDRVTISCSASQGISNYLNWYQQKPDGTVKLLIYYTSSLHSGVPSRFSGSGSGTDYSLTISNLEPEDIATYYCQQYSKLPWTFGGGTKLEIKRADAAALEHHHHHH |
| – | – | – | – | – | – | binds | binds | binds | – | P2X4-scFv12 (scFv) scFv: MADVKLQESGPGLVKPSQSLSLTCSVTGYSITSGYYWNWIRQFPGNKLEWMGYISYDGSNNYNPSLKNRISITRDTSKNQFFLKLNSVTTEDTATYYCARSDYDLYYYAMDYWGQGTSVTVSSAKTTPPSGGGGSGGGGSGGGGGSGGGGSDIVMTQSPATLSVTPGDRVSLSCRASQSISDYLHWYQQKSHESPRLLIKYASQSISGIPSRFSGSGSGSDFTLSINSVEPEDVGVYYCQNGHSFPLTFGSGTKLEIKRADAAALEHHHHHH |
| binds | binds | binds | – | – | – | – | – | – | – | humanized P2X4R scFv HC3-LC1 (scFv, HC-(G4S)3-LC with C-terminal His tag, expressed in E. coli) scFv: MAEVQLVESGGGLVQPGGSLRLSCATSGFTFTDYYMHWVRQAPGKGLEWVGFIRNKANGYTTEYSASVKGRFTISRDNSKNTLYLQMNSLRAEDTAVYYCARWEGDLLYAMDYWGQGTLVTVSSGGGGSGGGGSGGGGSDIQMTQTTSSLSASLGDRVTISCSASQGISNYLNWYQQKPDGTVKLLIYYTSSLHSGVPSRFSGSGSGTDYSLTISNLEQEDIATYYCQQYSKLPWTFGGGTKLEIKRAAALEHHHHHH |
| binds | binds | binds | – | – | – | – | – | – | – | humanized P2X4R scFv HC2-LC3 (scFv, HC-(G4S)3-LC with C-terminal His tag) scFv: MAQVQLQESGPGLVKPSQTLSLTCTTSGFTFTDYYMSWVRQAPGKGLEWIGFIRNKANGYTTEYSASVKGRFTISRDNSKNQFSLRLSSVTAADTAVYYCARWEGDLLYAMDYWGQGTTVTVSSGGGGSGGGGSGGGGSDIQMTQSPSSLSASVGDRVTITCRASQGISNYLNWYQQKPGKAPKLLIYYTSSLHSGVPSRFSGSGSGTDFTLTISSLQPEDFAYYYCQQYSKLPWTFGGGTKVEIKRAAALEHHHHHH |
